PubChem BioAssay AID1259286 – Sanger Institute, 2017

Purpose: 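Kinases whose loss adds to targeted drug killing of colorectal cancer cells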 (primary screen)
Cell system: NCI-H630 human colorectal cancer cells
Knock-down reagent: siRNA pool against human genes
Challenge: anchor drugs BYL719 at 1 µM, cetuximab at 5 µg/ml or trametinib at 10 nM, or DMSO vehicle alone; exposure time not given
Measurement: 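Viability relative to non-targeting pool wells, averaged over replicates, with robust z-score for knock-down alone and a synergy score for each anchor drug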
Direction: viability z-score, knock-down alone: higher = more viable cells, weaker knock-down effect
Hit rule: 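Essential call: robust z-score of viability with siRNA alone lower than -3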
Meaning of the calls: active = essential when knocked down alone; inactive = not essential alone
Shown is a random part of 794 deposited reagents. In the full data, 17 (2.1%) are marked active. 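Calls use knock-down alone only; synergy above 0.15 marked separately; viability seems capped at control level; exposure time not given.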 Entries without a mark were called inactive. Not all columns of the deposit are shown. The record does not give: the amount of reagent, the time to read-out.

MAP3K3 (mitogen-activated protein kinase kinase kinase 3): viability z-score, knock-down alone = 0.464
CSNK1G1 (casein kinase 1 gamma 1): viability z-score, knock-down alone = 0.423
MAPK9 (mitogen-activated protein kinase 9): viability z-score, knock-down alone = 0.464
SF3B1 (splicing factor 3b subunit 1): viability z-score, knock-down alone = -3.07 (active)
NTRK2 (neurotrophic receptor tyrosine kinase 2): viability z-score, knock-down alone = 0.464
FGFR1 (fibroblast growth factor receptor 1): viability z-score, knock-down alone = 0.318
NME3 (NME/NM23 nucleoside diphosphate kinase 3): viability z-score, knock-down alone = 0.464
TEC (tec protein tyrosine kinase): viability z-score, knock-down alone = 0.464
TSSK6 (testis specific serine kinase 6): viability z-score, knock-down alone = 0.464
ULK3 (unc-51 like kinase 3): viability z-score, knock-down alone = 0.464
PHKB (phosphorylase kinase regulatory subunit beta): viability z-score, knock-down alone = 0.464
DBF4 (DBF4-CDC7 kinase regulatory subunit): viability z-score, knock-down alone = 0.464
HIPK3 (homeodomain interacting protein kinase 3): viability z-score, knock-down alone = 0.0417
NEK1 (NIMA related kinase 1): viability z-score, knock-down alone = 0.464
ADCK5 (aarF domain containing kinase 5): viability z-score, knock-down alone = 0.464
BUB1 (BUB1 mitotic checkpoint serine/threonine kinase): viability z-score, knock-down alone = -2.89
PRKCZ (protein kinase C zeta): viability z-score, knock-down alone = -6.82 (active)
MAST1 (microtubule associated serine/threonine kinase 1): viability z-score, knock-down alone = 0.464
RIPK2 (receptor interacting serine/threonine kinase 2): viability z-score, knock-down alone = 0.256

Entries above whose target name begins with T or t:
TEC (tec protein tyrosine kinase): viability z-score, knock-down alone = 0.464
TSSK6 (testis specific serine kinase 6): viability z-score, knock-down alone = 0.464
